Reference: patent publication CN109734803A
No constants are given. Whether binding was seen depends on the method and setting. Some entries that bind do so weakly or less than the wild type.

Sequences of proteins named here, by UniProt entry; tags and fusion partners are left off. Residues count along the entry.
UniProt P02144, residues 2-154: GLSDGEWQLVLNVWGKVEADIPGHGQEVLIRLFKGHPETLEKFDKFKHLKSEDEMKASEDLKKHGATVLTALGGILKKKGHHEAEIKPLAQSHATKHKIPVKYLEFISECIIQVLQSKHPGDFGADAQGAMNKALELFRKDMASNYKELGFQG

Target: Myo抗原(购买于Meridian公司) (UniProt P02144)
Assay: sandwich lateral-flow card, M26 coated at 1 mg/ml as capture, Myo antigen at 200 and 50 ng/ml

binding: binds
B1: 单链抗体M26 (scFv, not shown: small tags and cut ends)
scFv: QVQLQQSGDDLVKPGASVKLSCKASGYTFTSYWINWIKQRPGQGLEWIGRIAPEGDSTYYNEMFKGKATLTVDTSSSTAYIQLSSLSSEDSAVYFCAREVRNAMDYWGQGTSVTVSSGGGGSGGGGSGGGGSDIQMNQSPSSLSASLGDTITITCHASQNIHVWLSWYLQKPGNITKLLIYEASNLHTGVPSRFSGSGSGTGFTLTISSLQPEDIATYYCQQGQRYPLTFGGGTKLEIK
